Source: the supplement of paper PMC8616043
Where a name gives a salt, the structure may show the parent alone. This is one part of the list. This data set is noisy: repeats of one test often differ as much as different tests do.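 PR50, a 50-repeat proline–arginine dipeptide protein from C9ORF72 (ALS/FTD), was expressed by transfection in U-2 OS human cells stably carrying a GFP sensor with import and classical export signals. Per-well nuclear-minus-cytoplasm GFP, normalized between in-plate DMSO (low) and PR-only (high), was scored versus other test wells; compounds well below zero were hits reversing PR.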

The compounds below were run on U-2 OS NCT-C biosensor cells expressing PR50 (assay: Z-score of normalised NCT-C biosensor translocation index in PR50-expressing cells; higher = more nuclear biosensor (more disrupted nuclear export)). Conditions: 3 µM; 24 h.

**Q.** With `CNc1cc(NS(=O)(=O)c2ccc(N)cc2)nc(NC)n1` [Ro 04-6790 dihydrochloride] as the compound, how does the Z-score read?
**A.** inactive: 0.999

**Q.** With `Cc1ccc(C(=O)NCCCCCC(=O)Nc2ccccc2N)cc1` as the compound, how does the Z-score read?
**A.** active: -2.89

**Q.** How did the Z-score turn out when `CCN(CC)CCn1c(=O)c(Cc2ccc(OC)cc2)nc2ccccc21` [Caroverine HCl] was run?
**A.** inactive: -0.404

**Q.** For `CO[C@H]1C[C@@H]2CC[C@@H](C)[C@@](O)(O2)C(=O)C(=O)N2CCCC[C@H]2C(=O)O[C@H]([C@H](C)C[C@@H]2CC[C@@H](O)[C@H](OC)C2)CC(=O)[C@H](C)/C=C(\C)[C@@H](O)[C@@H](OC)C(=O)[C@H](C)C[C@H](C)/C=C/C=C/C=C/1C` [Rapamycin], which Z-score is on record?
**A.** inactive: -0.623

**Q.** `CO[C@H]1C[C@@H]2CC[C@@H](C)[C@@](O)(O2)C(=O)C(=O)N2CCCC[C@H]2C(=O)O[C@H]([C@H](C)C[C@@H]2CC[C@@H](O)[C@H](OC)C2)CC(=O)[C@H](C)/C=C(\C)[C@@H](O)[C@@H](OC)C(=O)[C@H](C)C[C@H](C)/C=C/C=C/C=C/1C` [Sirolimus (Rapamycin)] was tested. Which Z-score did it give?
**A.** inactive: 0.947

**Q.** `C#C[C@]1(O)CC[C@H]2[C@@H]3CCC4=CC(=O)CC[C@@H]4[C@H]3CC[C@@]21C` [Norethindrone] was tested. Which Z-score did it give?
**A.** inactive: 0.16

**Q.** Which Z-score does the source give for `COc1cc2c(CCNC(C)=O)c[nH]c2cc1O` [6-Hydroxy melatonin] here?
**A.** inactive: -0.278

**Q.** For `CCCC(C)NC(=O)c1ccc(Cl)c(Cl)c1` (stereo not given), which Z-score is on record?
**A.** inactive: 0.338

**Q.** Which Z-score does the source give for `O=C1NC(=O)/C(=C\c2ccc3nccnc3c2)S1` here?
**A.** inactive: -0.258

**Q.** How did the Z-score turn out when `CO[C@@]1(NC(=O)C2SC(=C(C(N)=O)C(=O)O)S2)C(=O)N2C(C(=O)O)=C(CSc3nnnn3C)CS[C@@H]21` (stereo not given in full) [Cefotetan Disodium] was run?
**A.** inactive: -0.258

**Q.** How did the Z-score turn out when `CN(C)CCCN1c2ccccc2CCc2ccc(Cl)cc21` [Clomipramine hydrochloride] was run?
**A.** inactive: -0.649

**Q.** With `CN(C)CCCN1c2ccccc2CCc2ccc(Cl)cc21` [Clomipramine·HCl] as the compound, how does the Z-score read?
**A.** inactive: -0.338

**Q.** With `Nc1ccc(O)c(C(=O)O)c1` [Mesalamine (5-Aminosalicylic Acid)] as the compound, how does the Z-score read?
**A.** inactive: 0.918

**Q.** For `CNC(=O)[C@H]1O[C@@H](n2cnc3c(NCc4ccc(N)cc4)ncnc32)[C@H](O)[C@@H]1O`, which Z-score is on record?
**A.** inactive: 0.141

**Q.** How did the Z-score turn out when `COc1cc(N2CCN(C)CC2)ccc1Nc1nccc(-c2cn(C)c3cnccc23)n1` was run?
**A.** inactive: -0.245

**Q.** `COc1cc2c(cc1O)CC[C@@H]1[C@@H]2CC[C@]2(C)[C@@H](O)CC[C@@H]12` [2-methoxyestradiol] was tested. Which Z-score did it give?
**A.** inactive: -0.664

**Q.** For `C[C@@H]1O[C@@H](Oc2c(-c3ccc(O)c(O)c3)oc3cc(O)cc(O)c3c2=O)[C@H](O)[C@H](O)[C@H]1O` [Quercitrin], which Z-score is on record?
**A.** inactive: 1.42

**Q.** With `CN(C)CCCNC(=O)c1ccc(-c2cc(O)c3ncccc3c2)cc1` as the compound, how does the Z-score read?
**A.** inactive: -0.314

**Q.** For `O=C(O)Cc1ccccc1Nc1c(Cl)cccc1Cl` [Diclofenac sodium], which Z-score is on record?
**A.** inactive: -0.64

**Q.** `O=c1[nH]cc(F)c(=O)[nH]1` [Fluorouracil (5-Fluorouracil)] was tested. Which Z-score did it give?
**A.** inactive: 0.354

**Q.** With `O=c1[nH]cc(F)c(=O)[nH]1` [5-Fluorouracil] as the compound, how does the Z-score read?
**A.** inactive: -0.587

**Q.** `C[C@]12C=CC(=O)C=C1CC[C@@H]1[C@@H]2[C@@H](O)C[C@@]2(C)[C@H]1CC[C@]2(O)C(=O)CO` [Prednisolone] was tested. Which Z-score did it give?
**A.** inactive: -0.423

**Q.** Which Z-score does the source give for `CC(C)Cc1ccc([C@H](C)C(=O)O)cc1` [S(+)-Ibuprofen] here?
**A.** inactive: -0.0191

**Q.** With `CC(C)C(=O)SCCCCCCC(=O)Nc1nc(-c2ccccc2)cs1` as the compound, how does the Z-score read?
**A.** active: -2.28

**Q.** For `CC(=O)Oc1cc(C(F)(F)F)ccc1C(=O)O` [Triflusal], which Z-score is on record?
**A.** inactive: -0.566

**Q.** With `C[N+](C)(C)CCO.[Br-]` [Choline bromide] as the compound, how does the Z-score read?
**A.** inactive: 3.13

**Q.** Which Z-score does the source give for `N=c1ccn2c(n1)O[C@H]1[C@H](O)[C@@H](CO)O[C@H]12` [Ancitabine hydrochloride] here?
**A.** inactive: -0.285

**Q.** With `O=C1NC(=O)/C(=C/c2ccc(-c3ccc(F)cc3O)o2)S1` as the compound, how does the Z-score read?
**A.** inactive: -0.193

**Q.** How did the Z-score turn out when `CC[N+](CC)(CC)CC` [Tetraethylammonium chloride] was run?
**A.** inactive: -0.559

**Q.** With `COc1ccc(CCN(C)CCc2ccc(OC)c(OC)c2)cc1OC` [YS-035  hydrochloride] as the compound, how does the Z-score read?
**A.** inactive: -0.362

**Q.** `Cc1cccc(-c2[nH]c(C(C)(C)C)nc2-c2ccc3nccnc3c2)n1` was tested. Which Z-score did it give?
**A.** inactive: 0.22

**Q.** For `CC[C@H](C)n1cc(C)c2c(C(=O)NCc3c(C)cc(C)[nH]c3=O)cc(-c3ccc(N4CCNCC4)nc3)cc21`, which Z-score is on record?
**A.** inactive: -1.12

**Q.** `O=c1c(O)c(-c2cc(O)c(O)c(O)c2)oc2cc(O)ccc12` [Robinetin] was tested. Which Z-score did it give?
**A.** inactive: -0.671

**Q.** `Cc1ccccc1/C=C/C1=NCCN1` [Metrazoline oxalate] was tested. Which Z-score did it give?
**A.** inactive: 0.162

**Q.** `O=C(O)C1CCCNC1` (racemic) [(±)-Nipecotic acid] was tested. Which Z-score did it give?
**A.** inactive: 0.107

**Q.** Which Z-score does the source give for `CN(C)[C@@H]1C(O)=C(C(N)=O)C(=O)[C@@]2(O)C(O)=C3C(=O)c4c(O)cccc4[C@@](C)(O)[C@H]3C[C@@H]12` [Tetracycline] here?
**A.** inactive: 0.289

**Q.** Which Z-score does the source give for `C[C@H](N[C@@H](CCc1ccccc1)C(=O)O)C(=O)N1CCC[C@H]1C(=O)O` [Enalaprilat dihydrate] here?
**A.** inactive: 0.258

**Q.** For `NC(=O)N[C@@H](CCC(=O)O)C(=O)O` [Carglumic Acid], which Z-score is on record?
**A.** inactive: 0.164

**Q.** For `COCCCC/C(=N\OCCN)c1ccc(C(F)(F)F)cc1` [Fluvoxamine Maleate], which Z-score is on record?
**A.** inactive: 0.964

**Q.** With `COCCCC/C(=N\OCCN)c1ccc(C(F)(F)F)cc1` [Fluvoxamine maleate] as the compound, how does the Z-score read?
**A.** inactive: 0.255

**Q.** How did the Z-score turn out when `COC(=O)[C@H](c1ccccc1Cl)N1CCc2sccc2C1` [Clopidogrel Bisulfate] was run?
**A.** inactive: 0.155

**Q.** With `C[C@]12CCC(=O)C=C1CC[C@@H]1[C@@H]2C(=O)C[C@@]2(C)[C@H]1CC[C@]2(O)C(=O)CO` [Cortisone] as the compound, how does the Z-score read?
**A.** inactive: 3.07

**Q.** For `O=C1/C(=C/c2cccs2)CC/C1=C\c1cccs1`, which Z-score is on record?
**A.** inactive: -0.219

**Q.** Which Z-score does the source give for `Nc1nc(F)nc2c1ncn2[C@@H]1O[C@H](COP(=O)(O)O)[C@@H](O)[C@@H]1O` [Fludarabine Phosphate] here?
**A.** inactive: 0.64

**Q.** With `CO[C@H]1[C@H](OC(=O)c2ccc(C)[nH]2)[C@H](O)[C@@H](Oc2ccc3c(O)c(NC(=O)c4c[nH]c(C(=O)Nc5c(O)c6ccc(O[C@H]7OC(C)(C)[C@@H](OC)[C@H](OC(=O)c8ccc(C)[nH]8)[C@@H]7O)c(C)c6oc5=O)c4C)c(=O)oc3c2C)OC1(C)C` [Coumermycin A1] as the compound, how does the Z-score read?
**A.** inactive: 0.0651

**Q.** Which Z-score does the source give for `O=C(OCCN1CCOCC1)C1(c2ccccc2)CCCCC1` here?
**A.** inactive: -0.351

**Q.** How did the Z-score turn out when `COc1ccc(-c2coc3cc(O)ccc3c2=O)cc1` [Formononetin] was run?
**A.** inactive: -1.04

**Q.** `Clc1ccc2c(c1)C(N1CCNCC1)=Nc1ccccc1O2` [Amoxapine] was tested. Which Z-score did it give?
**A.** inactive: 0.847

**Q.** Which Z-score does the source give for `O=C(O)CCCc1c[nH]c2ccccc12` [Indole-3-butyric acid] here?
**A.** inactive: -0.318

**Q.** Which Z-score does the source give for `CC(C)(Oc1ccc(CCNC(=O)c2ccc(Cl)cc2)cc1)C(=O)O` [Bezafibrate] here?
**A.** inactive: -0.651

**Q.** `OCCN1CCN(CCCN2c3ccccc3Sc3ccc(C(F)(F)F)cc32)CC1` [Fluphenazine· 2HCl] was tested. Which Z-score did it give?
**A.** inactive: 0.416

**Q.** Which Z-score does the source give for `OCCN1CCN(CCCN2c3ccccc3Sc3ccc(C(F)(F)F)cc32)CC1` [Fluphenazine dihydrochloride] here?
**A.** inactive: -0.175

**Q.** Which Z-score does the source give for `NCCCCC(=O)O` [5-Aminovaleric acid hydrochloride] here?
**A.** inactive: 0.0263

**Q.** With `CC(C(=O)O)c1ccc(CC2CCCC2=O)cc1` (stereo not given) [loxoprofen] as the compound, how does the Z-score read?
**A.** inactive: 0.765

**Q.** For `CC[C@H]1OC(=O)[C@H](C)[C@@H](O[C@H]2C[C@@](C)(OC)[C@@H](O)[C@H](C)O2)[C@H](C)[C@@H](O[C@@H]2O[C@H](C)C[C@H](N(C)C)[C@H]2O)[C@](C)(O)C[C@@H](C)C(=O)[C@H](C)[C@@H](O)[C@]1(C)O` [Erythromycin], which Z-score is on record?
**A.** inactive: -0.0223

**Q.** For `CCCSc1ccc2[nH]c(NC(=O)OC)nc2c1` [Albendazole], which Z-score is on record?
**A.** inactive: 0.38

**Q.** `CO[C@H]1/C=C/O[C@@]2(C)Oc3c(C)c(O)c4c(O)c(c(/C=N/N5CCN(C)CC5)c(O)c4c3C2=O)NC(=O)/C(C)=C\C=C\[C@H](C)[C@H](O)[C@@H](C)[C@@H](O)[C@@H](C)[C@H](OC(C)=O)[C@@H]1C` [Rifampin (Rifampicin)] was tested. Which Z-score did it give?
**A.** inactive: 1.34

**Q.** `CO[C@H]1/C=C/O[C@@]2(C)Oc3c(C)c(O)c4c(O)c(c(/C=N/N5CCN(C)CC5)c(O)c4c3C2=O)NC(=O)/C(C)=C\C=C\[C@H](C)[C@H](O)[C@@H](C)[C@@H](O)[C@@H](C)[C@H](OC(C)=O)[C@@H]1C` [Rifampicin] was tested. Which Z-score did it give?
**A.** inactive: -0.46

**Q.** With `CC(C)NCC(O)c1ccc(O)c(O)c1` (racemic) [(±)-Isoproterenol hydrochloride] as the compound, how does the Z-score read?
**A.** inactive: 0.47

**Q.** How did the Z-score turn out when `CC(C)NCC(O)c1ccc(O)c(O)c1` (racemic) [(±) Isoproterenol·HCl] was run?
**A.** inactive: 0.161

**Q.** How did the Z-score turn out when `CC(C)(C)c1ccc(/C=C/C(=O)Nc2ccc3c(c2)OCCO3)cc1` was run?
**A.** inactive: -0.294

**Q.** For `CC[n+]1c(/C=C/C=C2/N(C)c3ccccc3C2(C)C)sc2ccccc21`, which Z-score is on record?
**A.** inactive: 2.12

**Q.** Which Z-score does the source give for `CCc1ccc(CCOc2ccc(CC3SC(=O)NC3=O)cc2)nc1` (stereo not given) [Pioglitazone·HCl] here?
**A.** inactive: 0.0226

**Q.** Which Z-score does the source give for `Cc1ccc(N(CC2=NCCN2)c2cccc(O)c2)cc1` [Phentolamine·HCl] here?
**A.** inactive: 1.03

**Q.** With `Cc1ccc(N(CC2=NCCN2)c2cccc(O)c2)cc1` [Phentolamine mesylate] as the compound, how does the Z-score read?
**A.** inactive: -0.834
